The text below walks through data of PubChem BioAssay AID330 (DTP/NCI, 2004).

Structures are written as SMILES. The list is a part of this screen's results and no random one: its compounds were picked by chemical class. Not every dose and run of a compound is shown. T/C gives the treated animals as a percentage of the vehicle group. Some doses have a count of surviving animals in place of a T/C: the source files T/C as zero there, which appears to mark a toxic dose or a test without result, not a measured value. Some survivor counts are full or nearly so, which does not show that the dose was tolerated: the source hardly ever lists a survival T/C far under the control, and the zero likely stands for such cases as well. Counts of survivors are from the toxicity check (mostly the fifth day) where no day follows; animals may have died later. Schedules are NCI's codes, read here as Q, the interval in days (D) or hours (H), X, the number of doses. Some doses were run more than once; their values stand side by side, smallest first. For survival time, this PubChem deposit counts one and a half times the control or more as active, and values a quarter to a half above the control carry no call in these data; other NCI protocols may use other cut-offs. Some T/C values are marked as having no survivor count here; that says nothing about deaths at the dose. Brackets with × count equal records among those shown.

For the assay, the system named is P388 leukemia ip, CD2F1 mice, survival T/C. Put plainly: NCI In Vivo Anticancer Drug Screen. Data for tumor model P388 Leukemia (intraperitoneal) in CD2F1 (CDF1) mice. Conditions: T/C endpoint: median survival time, higher T/C = longer survival.
[1] abbreviates: dose: 100.0 mg/kg/injection, schedule: Q01DX009 (ip), vehicle: saline with Tween-80.
Setting [2] is: dose: 200.0 mg/kg/injection, schedule: Q01DX009 (ip), vehicle: saline with Tween-80.
[3] abbreviates: dose: 400.0 mg/kg/injection, schedule: Q01DX009 (ip), vehicle: saline with Tween-80.
Where [4] appears, read: dose: 18.75 mg/kg/injection, schedule: Q04DX003 (ip), vehicle: Klucel (hydroxypropylcellulose) (HPC).

With `N#CC(C#N)=Cc1ccc(N(CCCl)CCCl)cc1`, the T/C is, setting by setting: under setting [1], 145 % of control [survivor count not shown]; under setting [2], 165 % of control [survivor count not shown]; (dose: 264.0 mg/kg/injection, schedule: Q04DX003 (ip), vehicle: saline with Tween-80) 104 % of control [survivor count not shown]; under setting [3], 150 % of control [survivor count not shown]; (dose: 400.0 mg/kg/injection, schedule: Q04DX003 (ip), vehicle: saline with Tween-80) 113 % of control [survivor count not shown]; (dose: 600.0 mg/kg/injection, schedule: Q04DX003 (ip), vehicle: saline with Tween-80) 177 % of control [survivor count not shown].

`O=C(O)c1ccc(CN(CCCl)CCCl)cc1`: the T/C was 157 [survivor count not shown] and 163 % of control [survivor count not shown] (dose: 0.75 mg/kg/injection, schedule: Q01DX009 (ip), vehicle: saline); 136 % of control [survivor count not shown] (2×) (dose: 0.75 mg/kg/injection, schedule: Q04DX003 (ip), vehicle: saline); 189 % of control [survivor count not shown] (2×) (dose: 1.5 mg/kg/injection, schedule: Q01DX009 (ip), vehicle: saline); 146 [survivor count not shown] and 159 % of control [survivor count not shown] (dose: 1.5 mg/kg/injection, schedule: Q04DX003 (ip), vehicle: saline); 218 % of control [survivor count not shown] (dose: 3.0 mg/kg/injection, schedule: Q01DX009 (ip), vehicle: saline); 169 [survivor count not shown] and 180 % of control [survivor count not shown] (dose: 3.0 mg/kg/injection, schedule: Q04DX003 (ip), vehicle: saline). The T/C (dose: 6.0 mg/kg/injection, schedule: Q04DX003 (ip), vehicle: saline) was 190 % of control [survivor count not shown] (2×).

Take `O=C1/C(=C/N(CCCl)CCCl)CSc2ccccc21`: the T/C is 106 % of control [survivor count not shown] (dose: 100.0 mg/kg/injection, schedule: Q04DX003 (ip), vehicle: Klucel (hydroxypropylcellulose) (HPC)); 100 % of control [survivor count not shown] (dose: 200.0 mg/kg/injection, schedule: Q04DX003 (ip), vehicle: Klucel (hydroxypropylcellulose) (HPC)); 99 % of control [survivor count not shown] (dose: 400.0 mg/kg/injection, schedule: Q04DX003 (ip), vehicle: Klucel (hydroxypropylcellulose) (HPC)).

On to `COC(=O)c1ccc(C)c(N(CCCl)CCCl)c1`, for which the T/C reads like this: (dose: 25.0 mg/kg/injection, schedule: Q01DX005 (ip), vehicle: saline with Tween-80) 185 % of control; (dose: 50.0 mg/kg/injection, schedule: Q01DX005 (ip), vehicle: saline with Tween-80) 280 and 303 % of control; (dose: 100.0 mg/kg/injection, schedule: Q01DX005 (ip), vehicle: saline with Tween-80) 133 and 161 % of control. The survivor count (dose: 200.0 mg/kg/injection, schedule: Q01DX005 (ip), vehicle: saline with Tween-80) is 0 of 6 and 2 of 6.

With `CC(C)(C)[Si](C)(C)N(CCCl)CCCl`, the T/C is 130 % of control (dose: 4.68 mg/kg/injection, schedule: Q04DX003 (ip), vehicle: Klucel (hydroxypropylcellulose) (HPC)); 145 and 153 % of control (dose: 9.37 mg/kg/injection, schedule: Q04DX003 (ip), vehicle: Klucel (hydroxypropylcellulose) (HPC)); 171 % of control under setting [4]. Also, the survivor count by setting is: under setting [4], 5 of 6; (dose: 37.5 mg/kg/injection, schedule: Q04DX003 (ip), vehicle: Klucel (hydroxypropylcellulose) (HPC)) 4 of 6; (dose: 75.0 mg/kg/injection, schedule: Q04DX003 (ip), vehicle: Klucel (hydroxypropylcellulose) (HPC)) 2 of 6; (dose: 150.0 mg/kg/injection, schedule: Q04DX003 (ip), vehicle: Klucel (hydroxypropylcellulose) (HPC)) 1 of 6; (dose: 300.0 mg/kg/injection, schedule: Q04DX003 (ip), vehicle: Klucel (hydroxypropylcellulose) (HPC)) 0 of 6.

In the case of `Oc1c(SCCCl)c(SCCCl)c(O)c(SCCCl)c1SCCCl`, the T/C runs as follows: (dose: 17.8 mg/kg/injection, schedule: Q01DX009 (ip), vehicle: saline with Tween-80) 118 % of control [survivor count not shown]; (dose: 26.6 mg/kg/injection, schedule: Q01DX009 (ip), vehicle: saline with Tween-80) 118 % of control [survivor count not shown]; (dose: 40.0 mg/kg/injection, schedule: Q01DX009 (ip), vehicle: saline with Tween-80) 131 % of control [survivor count not shown]; (dose: 44.0 mg/kg/injection, schedule: Q01DX009 (ip), vehicle: saline with Tween-80) 159 % of control [survivor count not shown]; (dose: 44.0 mg/kg/injection, schedule: Q04DX003 (ip), vehicle: saline with Tween-80) 118 % of control [survivor count not shown]; (dose: 60.0 mg/kg/injection, schedule: Q01DX009 (ip), vehicle: saline with Tween-80) 127 % of control [survivor count not shown]. In addition, the T/C was 168 % of control [survivor count not shown] (dose: 66.0 mg/kg/injection, schedule: Q01DX009 (ip), vehicle: saline with Tween-80); 131 % of control [survivor count not shown] (dose: 66.0 mg/kg/injection, schedule: Q04DX003 (ip), vehicle: saline with Tween-80); 170 [survivor count not shown] and 177 % of control [survivor count not shown] under setting [1]; 145 % of control [survivor count not shown] (dose: 100.0 mg/kg/injection, schedule: Q04DX003 (ip), vehicle: saline with Tween-80); 190 % of control [survivor count not shown] (dose: 150.0 mg/kg/injection, schedule: Q01DX009 (ip), vehicle: saline with Tween-80); 159 % of control [survivor count not shown] (dose: 150.0 mg/kg/injection, schedule: Q04DX003 (ip), vehicle: saline with Tween-80). The T/C was 180 % of control [survivor count not shown] under setting [2] and 160 % of control [survivor count not shown] under setting [3].

Take `O=C(Cl)c1ccc(N(CCCl)CCCl)cc1`: the T/C reads like this: (dose: 100.0 mg/kg/injection, schedule: Q01DX001 (ip), vehicle: Klucel (hydroxypropylcellulose) (HPC)) 100 % of control [survivor count not shown]; (dose: 200.0 mg/kg/injection, schedule: Q01DX001 (ip), vehicle: Klucel (hydroxypropylcellulose) (HPC)) 106 % of control [survivor count not shown]; (dose: 400.0 mg/kg/injection, schedule: Q01DX001 (ip), vehicle: Klucel (hydroxypropylcellulose) (HPC)) 108 % of control [survivor count not shown].

As to `O=C(O)Cc1c[nH]c2ccc(N(CCCl)CCCl)cc12`, the T/C runs as follows: (dose: 0.14 mg/kg/injection, schedule: Q01DX009 (ip), vehicle: saline with Tween-80) 120 % of control [survivor count not shown]; (dose: 0.22 mg/kg/injection, schedule: Q01DX009 (ip), vehicle: saline with Tween-80) 134 % of control [survivor count not shown]; (dose: 0.33 mg/kg/injection, schedule: Q01DX009 (ip), vehicle: saline with Tween-80) 149 % of control [survivor count not shown]; (dose: 0.5 mg/kg/injection, schedule: Q01DX009 (ip), vehicle: saline with Tween-80) 163 % of control [survivor count not shown]; (dose: 2.6 mg/kg/injection, schedule: Q04DX003 (ip), vehicle: saline with Tween-80) 185 % of control [survivor count not shown]; (dose: 4.0 mg/kg/injection, schedule: Q04DX003 (ip), vehicle: saline with Tween-80) 180 % of control [survivor count not shown]. Besides, the T/C by setting is: (dose: 6.0 mg/kg/injection, schedule: Q04DX003 (ip), vehicle: saline with Tween-80) 220 % of control [survivor count not shown]; (dose: 9.0 mg/kg/injection, schedule: Q04DX003 (ip), vehicle: saline with Tween-80) 110 % of control [survivor count not shown].
